Results: publication doi:10.1101/2021.12.06.471472
These are yes or no findings as the source states them, for the method shown. Binding seen in cells or lysates may run through a third protein. Some results given as binding are weak or reduced against the parent protein; the word gives no strength. Where a sequence is shown, tags or fusion partners need not be part of it.

T1: AGB1/AGG1 dimer (AtAGB1-nLUC co-expressed with mCherry-AtAGG1) (Arabidopsis thaliana) (UniProt P49177+Q9FDX9)
T1 sequence 1: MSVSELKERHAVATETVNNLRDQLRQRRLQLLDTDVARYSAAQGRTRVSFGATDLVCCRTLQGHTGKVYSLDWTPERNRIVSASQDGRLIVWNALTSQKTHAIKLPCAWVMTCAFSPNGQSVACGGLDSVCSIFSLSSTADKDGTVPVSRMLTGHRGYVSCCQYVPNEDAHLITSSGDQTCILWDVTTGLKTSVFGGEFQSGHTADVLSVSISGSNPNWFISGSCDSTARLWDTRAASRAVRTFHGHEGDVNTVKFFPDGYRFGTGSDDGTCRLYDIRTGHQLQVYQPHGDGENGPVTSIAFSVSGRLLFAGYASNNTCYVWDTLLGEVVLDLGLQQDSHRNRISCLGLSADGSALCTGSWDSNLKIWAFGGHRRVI
T1 sequence 2: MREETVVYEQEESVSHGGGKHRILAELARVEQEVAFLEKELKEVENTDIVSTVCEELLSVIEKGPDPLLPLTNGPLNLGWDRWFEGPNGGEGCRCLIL

T2: Arabidopsis thaliana REGULATOR OF G … 1 protein (AtRGS1), AtRGS1-nLUC (Arabidopsis thaliana) (UniProt Q8H1F2)
T2 sequence: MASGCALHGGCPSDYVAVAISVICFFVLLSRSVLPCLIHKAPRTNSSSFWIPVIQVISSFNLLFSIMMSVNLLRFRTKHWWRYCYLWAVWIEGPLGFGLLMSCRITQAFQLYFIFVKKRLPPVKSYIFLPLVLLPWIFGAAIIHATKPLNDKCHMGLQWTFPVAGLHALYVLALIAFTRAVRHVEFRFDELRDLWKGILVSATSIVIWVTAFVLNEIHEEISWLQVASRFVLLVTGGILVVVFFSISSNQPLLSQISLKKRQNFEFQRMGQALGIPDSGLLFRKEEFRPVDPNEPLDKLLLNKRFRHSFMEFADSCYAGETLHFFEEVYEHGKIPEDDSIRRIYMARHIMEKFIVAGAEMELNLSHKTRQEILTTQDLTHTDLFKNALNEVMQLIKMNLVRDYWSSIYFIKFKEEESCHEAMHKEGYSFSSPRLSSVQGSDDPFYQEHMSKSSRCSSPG


Experiments:
[1] = biological target: T1, AGB1/AGG1 dimer (AtAGB1-nLUC co-expressed with mCherry-AtAGG1) (Arabidopsis thaliana); assay: split reporter
[2] = biological target: T2, Arabidopsis thaliana REGULATOR OF G … 1 protein (AtRGS1), AtRGS1-nLUC (Arabidopsis thaliana); assay: split reporter

| binding [1] | binding [2] | Binder |
| --- | --- | --- |
| binds |  | AtGPA1, canonical Gα subunit, cLUC-AtGPA1 (protein, UniProt P18064 1-383) MGLLCSRSRHHTEDTDENTQAAEIERRIEQEAKAEKHIRKLLLLGAGESGKSTIFKQIKLLFQTGFDEGELKSYVPVIHANVYQTIKLLHDGTKEFAQNETDSAKYMLSSESIAIGEKLSEIGGRLDYPRLTKDIAEGIETLWKDPAIQETCARGNELQVPDCTKYLMENLKRLSDINYIPTKEDVLYARVRTTGVVEIQFSPVGENKKSGEVYRLFDVGGQRNERRKWIHLFEGVTAVIFCAAISEYDQTLFEDEQKNRMMETKELFDWVLKQPCFEKTSFMLFLNKFDIFEKKVLDVPLNVCEWFRDYQPVSSGKQEIEHAYEFVKKKFEELYYQNTAPDRVDRVFKIYRTTALDQKLVKKTFKLVDETLRRRNLLEAGLL |
|  | binds | ATBα, PROTEIN PHOSPHATASE 2A (PP2A) regulatory B subunit alpha isoform, AtATBα-nLUC (protein, UniProt Q38821 1-513) MNGGDEVVAASADPSLPLEWRFSQVFGERSAGEEVQEVDIISAIEFDNSGNHLATGDRGGRVVLFERTDTNNSSGTRRELEEADYPLRHPEFRYKTEFQSHDPEFDYLKSLEIEEKINKIRWCQTANGALFLLSTNDKTIKFWKVQDKKIKKICDMNSDPSRTVGNGTVASSSNSNITNSCLVNGGVSEVNNSLCNDFSLPAGGISSLRLPVVVTSHESSPVARCRRVYAHAHDYHINSISNNSDGETFISADDLRINLWNLEISNQSFNIVDVKPAKMEDLSEVITSAEFHPTHCNMLAYSSSKGSIRLIDLRQSALCDSHSKLFEEPEQAGPKSFFTEIIASVSDIKFAKEGRYLLSRDYMTLKLWDINMDAGPVATFQVHEYLKPKLCDLYENDSIFDKFECCISGNGLRAATGSYSNLFRVFGVAPGSTETATLEASRNPMRRHVPIPSRPSRALSSITRVVSRGSESPGVDGNTNALDYTTKLLHLAWHPNENSIACAAANSLYMYYA |
